Primary screen of a compound library

The values are deposited in ChEMBL (CHEMBL3988442, “University of Dundee, Small-Polar-MMV Screening Library” (2021)).

The filed quantity is “Percent Effect” (%). How 0% and 100% were set is not recorded. Most values in the screen are low, and negative values occur. The compounds are a random part of those screened.

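Whole-parasite assay of Trypanosoma brucei over 72 hours; the read-out is not stated. Compounds at 30 µM. Direction is inferred from retests: higher values go with stronger inhibition. Values scatter widely below zero; nearly all retest evidence comes from the higher of the two concentrations used. Of about 64,000 compounds tested this way, about 940 (1.5%) reached 50% or more in at least one test.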

Compound	effect
CC(C)N(CC(=O)Nc1cccc(C(=O)N(C)C)c1)C1CC1	-29.3%
COc1ncccc1C(=O)Nc1ccccc1-c1ccc(=O)n(C)n1	1.408%
CC(C)Nc1nc(-c2ccccc2)nc2c1CCN(C(=O)C1CC1)CC2.O=C(O)C(F)(F)F	-34.27%
O=C(NCc1nn(-c2ccccc2)c2c1CCC2)N1CCSCC1	-15.48%
Cc1n[nH]c(SCC(=O)NC(c2ccncc2)C(C)C)n1 (centres unmarked)	-37.27%
O=C(NCc1ccc(OCC2CC2)nc1)c1c(F)cccc1F	7.043%
O=C(Cc1ccccn1)N1CCc2c(O)nc(-c3cnccn3)nc2C1	8.159%
CCCN1Cc2cc(Br)ccc2OCC1=O	-24.96%
CSCCC1c2nc[nH]c2CCN1Cc1ccccc1C#N (centres unmarked)	-26.47%
O=C(O)C(F)(F)F.O=C(c1cccc(Cl)c1)N1CCCn2c(CN3CCCCC3)nnc2C1	5.337%
[H][C@]1([C@H](O)c2ccc(NC(=O)COC)cc2)COCC(=O)N1CC	-8.771%
Cc1cc(CN2CCC(CNS(=O)(=O)c3ccc(C)s3)CC2)c(C)o1	-7.383%
CCN(CC)C(=O)CCCNC(=O)Cc1nc(-c2ccco2)oc1C	-22.46%
Cc1nn(CC(=O)N2CCN(c3ncccn3)CC2)c(C)c1Cl	-13.17%
CN(C)CCN1CCCC12CCCN(Cc1ccco1)C2.O=C(O)C(F)(F)F.O=C(O)C(F)(F)F.O=C(O)C(F)(F)F (centres unmarked)	-26.45%
COc1ccc(CNC(=O)N2CCOCC2C2CC2)cc1C (centres unmarked)	-21.73%
O=C(O)C(F)(F)F.O=C(c1ccccn1)N1CCC2(CC1)C(=O)Nc1ccccc12	-71.18%
Cc1cccc(CO[C@@H]2CO[C@@]3(CCN(S(=O)(=O)N(C)C)C3)C2)n1.O=C(O)C(F)(F)F	-29.22%
Cl.c1cc(CNCc2ccc(-n3cncn3)nc2)cc(OC2CCCC2)c1	-105%
COc1cc(-c2nccn2CCn2cccn2)cc2c1OCO2	2.297%
Cc1ccc(CN2CCCC(c3nnc(CN4CCCCC4)n3C)C2)s1 (centres unmarked)	-16.55%
COc1cccc2c(C)c(C(=O)N3CCNCC3C(N)=O)[nH]c12.Cl (centres unmarked)	2.344%
O=C(NCc1nc(C2CCCCC2)no1)C1CC(=O)N(C2CC2)C1 (centres unmarked)	-2.838%
CCOc1ccc2[nH]c(=O)c(CN3CCC(O)CC3)cc2c1	32.31%
CC(C)(C)c1nnc(CN2CCCC(c3cc(C(N)=O)[nH]n3)C2)o1 (centres unmarked)	-34.54%
COC1CCCN(CCCc2cn[nH]c2)C1 (centres unmarked)	11.97%
COCCN1CCC2(CCCN(c3ncccn3)C2)C1.O=C(O)C(F)(F)F (centres unmarked)	11.05%
[H][C@]12CC[C@@]3(N=C(c4ccccc4)NC3=O)[C@@]1([H])CN(C(=O)N1CCCC1)C2	3.892%
COCCCN(Cc1ccccc1Cl)C1CCS(=O)(=O)C1 (centres unmarked)	-57.1%
CC(C)c1nc2n(n1)CC(NCc1nnc(C(C)C)o1)CC2 (centres unmarked)	-3.369%
CN(C)CC1CN(c2ncnc3[nH]ccc23)CCO1 (centres unmarked)	38.64%
Cn1cc(Cl)c(C(=O)N2CCC(N3CCc4ccccc4C3)CC2)n1	-75.7%
CN1CCC2(CCN(C(=O)c3cccnc3)C2)C1 (centres unmarked)	-66.02%
O=C(CCN1CCOCC1)N1CCC(Cc2ccc(CO)cc2)C1 (centres unmarked)	-15.44%
O=C(O)c1ccnc2c(Br)cccc12	-1.91%
Cc1ccc(CNC(CN2CCN(C)CC2)c2ccccc2)cc1 (centres unmarked)	0.9317%
O=C(Nc1nccs1)N(CCO)Cc1ccsc1	13.09%
O=C(c1cncnc1)N1Cc2ccccc2OC2(CCOCC2)C1	-31.84%
CC(Cc1ccc(Cl)cc1)NC(=O)Nc1cnn(CC(N)=O)c1 (centres unmarked)	-14.65%
O=C(O)C(F)(F)F.O=C(O)C(F)(F)F.[H][C@@]12CCCO[C@]1([H])[C@H](N(C)Cc1cccnc1)CN2C(=O)c1ccno1	-80.35%
O=C(COc1ccccc1)N1C[C@@H](O)[C@H](N2CCCC2)C1.O=CO	2.616%
CN(C)S(=O)(=O)N1CCC(c2cccc(Cc3ccccc3Cl)n2)CC1	-38.96%
Cc1ccc(Nc2nccc(C3CCCN(CC(=O)N(C)C)C3)n2)nc1 (centres unmarked)	22.68%
O=C(COCc1ccccc1)N1CCCC(n2cncn2)C1 (centres unmarked)	-12.13%
O=C(c1cscn1)N1CCCCC1c1nc2cc(F)ccc2[nH]1 (centres unmarked)	-17.08%
Cc1ncoc1C(=O)N1CCn2c(COCC3CC3)cnc2C1C (centres unmarked)	10.54%
Cc1nc(C)n(C2CCCN(C(=O)Cc3csc(C(C)C)n3)C2)n1 (centres unmarked)	-14.94%
Cn1nc(C(=O)N2CCOCC2)cc1C(=O)Nc1cc(Cl)cc(Cl)c1	-22.46%
CCC(CC)C(=O)NCc1cn2cc(Br)ccc2n1	26.46%
[H][C@@]12C[C@@H](c3nc(C)cs3)O[C@]1([H])CN(C(=O)c1cc(C)nn1CC)C2	-15.7%

The first 4 entries again:

Compound,effect
CC(C)N(CC(=O)Nc1cccc(C(=O)N(C)C)c1)C1CC1,-29.3%
COc1ncccc1C(=O)Nc1ccccc1-c1ccc(=O)n(C)n1,1.408%
CC(C)Nc1nc(-c2ccccc2)nc2c1CCN(C(=O)C1CC1)CC2.O=C(O)C(F)(F)F,-34.27%
O=C(NCc1nn(-c2ccccc2)c2c1CCC2)N1CCSCC1,-15.48%